Laboratory results published in the supplement of paper PMC10849652.
Some of the results follow.

Amino acid sequences for entries named in this document (tags omitted). A change or cut given only in a name is not applied to a line headed by its entry.
UniProt P54278: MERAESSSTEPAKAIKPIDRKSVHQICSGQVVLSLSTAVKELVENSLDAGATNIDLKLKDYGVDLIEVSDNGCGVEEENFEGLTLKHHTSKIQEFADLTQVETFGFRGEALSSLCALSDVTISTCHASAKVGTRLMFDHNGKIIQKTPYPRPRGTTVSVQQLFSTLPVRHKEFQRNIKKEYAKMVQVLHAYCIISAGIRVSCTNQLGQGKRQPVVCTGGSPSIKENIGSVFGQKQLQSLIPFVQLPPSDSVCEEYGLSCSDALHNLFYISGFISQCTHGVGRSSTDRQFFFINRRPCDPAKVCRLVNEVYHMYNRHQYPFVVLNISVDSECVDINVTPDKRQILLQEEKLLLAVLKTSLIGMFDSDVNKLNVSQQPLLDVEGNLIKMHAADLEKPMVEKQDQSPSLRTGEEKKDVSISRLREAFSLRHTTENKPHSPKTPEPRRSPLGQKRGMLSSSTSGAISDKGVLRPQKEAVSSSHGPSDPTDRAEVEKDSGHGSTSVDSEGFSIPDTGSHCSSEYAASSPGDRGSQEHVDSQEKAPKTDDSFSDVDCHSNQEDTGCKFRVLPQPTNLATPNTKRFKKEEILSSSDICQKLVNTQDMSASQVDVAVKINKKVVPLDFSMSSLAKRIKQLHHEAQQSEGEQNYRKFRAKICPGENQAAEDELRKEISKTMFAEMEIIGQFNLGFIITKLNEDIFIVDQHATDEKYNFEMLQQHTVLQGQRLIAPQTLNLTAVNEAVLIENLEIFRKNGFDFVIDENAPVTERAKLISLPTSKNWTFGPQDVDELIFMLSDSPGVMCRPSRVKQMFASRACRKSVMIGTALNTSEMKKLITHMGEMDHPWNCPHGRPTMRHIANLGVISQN
UniProt O60664: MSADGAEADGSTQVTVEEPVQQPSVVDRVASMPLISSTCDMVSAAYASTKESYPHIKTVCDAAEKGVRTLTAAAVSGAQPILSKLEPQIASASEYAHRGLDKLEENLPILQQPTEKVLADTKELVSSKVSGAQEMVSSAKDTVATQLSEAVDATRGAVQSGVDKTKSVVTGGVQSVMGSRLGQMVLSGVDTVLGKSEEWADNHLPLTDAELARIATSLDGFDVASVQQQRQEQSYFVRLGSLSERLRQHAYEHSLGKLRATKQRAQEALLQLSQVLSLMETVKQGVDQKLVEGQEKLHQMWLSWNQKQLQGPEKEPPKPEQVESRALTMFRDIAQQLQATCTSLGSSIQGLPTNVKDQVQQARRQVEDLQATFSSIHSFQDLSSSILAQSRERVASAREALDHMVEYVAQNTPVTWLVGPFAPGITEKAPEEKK
UniProt Q9NRY6: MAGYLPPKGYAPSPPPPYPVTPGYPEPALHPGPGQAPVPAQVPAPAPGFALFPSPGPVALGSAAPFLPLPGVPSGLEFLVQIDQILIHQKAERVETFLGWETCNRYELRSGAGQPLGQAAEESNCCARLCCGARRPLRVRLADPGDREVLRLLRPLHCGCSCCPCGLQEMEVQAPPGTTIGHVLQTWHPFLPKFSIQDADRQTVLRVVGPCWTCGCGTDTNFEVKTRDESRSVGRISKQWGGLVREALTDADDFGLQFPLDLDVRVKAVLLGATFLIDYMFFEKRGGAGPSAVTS
UniProt Q9H237: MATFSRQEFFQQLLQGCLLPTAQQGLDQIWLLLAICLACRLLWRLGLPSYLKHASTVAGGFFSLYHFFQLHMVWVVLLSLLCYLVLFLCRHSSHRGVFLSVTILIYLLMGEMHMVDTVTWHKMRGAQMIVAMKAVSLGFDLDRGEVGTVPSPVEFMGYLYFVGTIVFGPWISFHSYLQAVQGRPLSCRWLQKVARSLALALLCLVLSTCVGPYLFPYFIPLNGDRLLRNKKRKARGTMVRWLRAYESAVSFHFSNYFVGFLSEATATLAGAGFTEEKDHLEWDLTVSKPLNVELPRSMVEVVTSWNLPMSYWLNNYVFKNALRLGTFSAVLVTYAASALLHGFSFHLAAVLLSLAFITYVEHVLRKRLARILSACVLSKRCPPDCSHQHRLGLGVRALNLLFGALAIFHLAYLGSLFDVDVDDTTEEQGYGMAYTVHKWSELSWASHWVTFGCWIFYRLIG
UniProt Q9Y6A1: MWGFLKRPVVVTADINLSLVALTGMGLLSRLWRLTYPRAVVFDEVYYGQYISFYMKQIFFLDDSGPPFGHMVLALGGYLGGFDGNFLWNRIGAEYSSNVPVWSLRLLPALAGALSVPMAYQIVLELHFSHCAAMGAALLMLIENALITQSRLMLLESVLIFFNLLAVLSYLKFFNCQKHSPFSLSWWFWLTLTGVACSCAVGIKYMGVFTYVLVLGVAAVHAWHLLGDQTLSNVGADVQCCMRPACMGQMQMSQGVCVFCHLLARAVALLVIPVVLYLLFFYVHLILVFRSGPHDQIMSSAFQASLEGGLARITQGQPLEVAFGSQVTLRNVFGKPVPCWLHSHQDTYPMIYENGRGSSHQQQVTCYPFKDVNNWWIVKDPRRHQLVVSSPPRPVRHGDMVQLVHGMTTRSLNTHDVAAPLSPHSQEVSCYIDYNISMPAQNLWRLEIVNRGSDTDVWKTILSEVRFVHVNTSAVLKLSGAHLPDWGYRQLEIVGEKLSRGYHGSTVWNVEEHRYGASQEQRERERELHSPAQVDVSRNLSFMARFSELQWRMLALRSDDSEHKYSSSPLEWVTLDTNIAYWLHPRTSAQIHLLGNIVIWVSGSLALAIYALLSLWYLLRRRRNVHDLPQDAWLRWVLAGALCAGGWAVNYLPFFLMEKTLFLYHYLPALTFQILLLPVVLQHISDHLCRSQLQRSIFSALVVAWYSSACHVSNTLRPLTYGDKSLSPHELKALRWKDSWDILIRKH
POLG, A0A3B3IS91, UniProt A0A3B3IS91, whole entry, looked up: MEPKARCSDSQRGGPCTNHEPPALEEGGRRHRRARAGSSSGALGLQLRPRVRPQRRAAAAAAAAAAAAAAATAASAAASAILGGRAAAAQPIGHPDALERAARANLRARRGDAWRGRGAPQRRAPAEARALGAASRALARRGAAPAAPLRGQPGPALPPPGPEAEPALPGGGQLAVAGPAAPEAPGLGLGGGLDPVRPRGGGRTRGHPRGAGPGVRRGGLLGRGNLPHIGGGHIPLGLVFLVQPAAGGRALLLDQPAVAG
UniProt Q07864, whole entry, looked up: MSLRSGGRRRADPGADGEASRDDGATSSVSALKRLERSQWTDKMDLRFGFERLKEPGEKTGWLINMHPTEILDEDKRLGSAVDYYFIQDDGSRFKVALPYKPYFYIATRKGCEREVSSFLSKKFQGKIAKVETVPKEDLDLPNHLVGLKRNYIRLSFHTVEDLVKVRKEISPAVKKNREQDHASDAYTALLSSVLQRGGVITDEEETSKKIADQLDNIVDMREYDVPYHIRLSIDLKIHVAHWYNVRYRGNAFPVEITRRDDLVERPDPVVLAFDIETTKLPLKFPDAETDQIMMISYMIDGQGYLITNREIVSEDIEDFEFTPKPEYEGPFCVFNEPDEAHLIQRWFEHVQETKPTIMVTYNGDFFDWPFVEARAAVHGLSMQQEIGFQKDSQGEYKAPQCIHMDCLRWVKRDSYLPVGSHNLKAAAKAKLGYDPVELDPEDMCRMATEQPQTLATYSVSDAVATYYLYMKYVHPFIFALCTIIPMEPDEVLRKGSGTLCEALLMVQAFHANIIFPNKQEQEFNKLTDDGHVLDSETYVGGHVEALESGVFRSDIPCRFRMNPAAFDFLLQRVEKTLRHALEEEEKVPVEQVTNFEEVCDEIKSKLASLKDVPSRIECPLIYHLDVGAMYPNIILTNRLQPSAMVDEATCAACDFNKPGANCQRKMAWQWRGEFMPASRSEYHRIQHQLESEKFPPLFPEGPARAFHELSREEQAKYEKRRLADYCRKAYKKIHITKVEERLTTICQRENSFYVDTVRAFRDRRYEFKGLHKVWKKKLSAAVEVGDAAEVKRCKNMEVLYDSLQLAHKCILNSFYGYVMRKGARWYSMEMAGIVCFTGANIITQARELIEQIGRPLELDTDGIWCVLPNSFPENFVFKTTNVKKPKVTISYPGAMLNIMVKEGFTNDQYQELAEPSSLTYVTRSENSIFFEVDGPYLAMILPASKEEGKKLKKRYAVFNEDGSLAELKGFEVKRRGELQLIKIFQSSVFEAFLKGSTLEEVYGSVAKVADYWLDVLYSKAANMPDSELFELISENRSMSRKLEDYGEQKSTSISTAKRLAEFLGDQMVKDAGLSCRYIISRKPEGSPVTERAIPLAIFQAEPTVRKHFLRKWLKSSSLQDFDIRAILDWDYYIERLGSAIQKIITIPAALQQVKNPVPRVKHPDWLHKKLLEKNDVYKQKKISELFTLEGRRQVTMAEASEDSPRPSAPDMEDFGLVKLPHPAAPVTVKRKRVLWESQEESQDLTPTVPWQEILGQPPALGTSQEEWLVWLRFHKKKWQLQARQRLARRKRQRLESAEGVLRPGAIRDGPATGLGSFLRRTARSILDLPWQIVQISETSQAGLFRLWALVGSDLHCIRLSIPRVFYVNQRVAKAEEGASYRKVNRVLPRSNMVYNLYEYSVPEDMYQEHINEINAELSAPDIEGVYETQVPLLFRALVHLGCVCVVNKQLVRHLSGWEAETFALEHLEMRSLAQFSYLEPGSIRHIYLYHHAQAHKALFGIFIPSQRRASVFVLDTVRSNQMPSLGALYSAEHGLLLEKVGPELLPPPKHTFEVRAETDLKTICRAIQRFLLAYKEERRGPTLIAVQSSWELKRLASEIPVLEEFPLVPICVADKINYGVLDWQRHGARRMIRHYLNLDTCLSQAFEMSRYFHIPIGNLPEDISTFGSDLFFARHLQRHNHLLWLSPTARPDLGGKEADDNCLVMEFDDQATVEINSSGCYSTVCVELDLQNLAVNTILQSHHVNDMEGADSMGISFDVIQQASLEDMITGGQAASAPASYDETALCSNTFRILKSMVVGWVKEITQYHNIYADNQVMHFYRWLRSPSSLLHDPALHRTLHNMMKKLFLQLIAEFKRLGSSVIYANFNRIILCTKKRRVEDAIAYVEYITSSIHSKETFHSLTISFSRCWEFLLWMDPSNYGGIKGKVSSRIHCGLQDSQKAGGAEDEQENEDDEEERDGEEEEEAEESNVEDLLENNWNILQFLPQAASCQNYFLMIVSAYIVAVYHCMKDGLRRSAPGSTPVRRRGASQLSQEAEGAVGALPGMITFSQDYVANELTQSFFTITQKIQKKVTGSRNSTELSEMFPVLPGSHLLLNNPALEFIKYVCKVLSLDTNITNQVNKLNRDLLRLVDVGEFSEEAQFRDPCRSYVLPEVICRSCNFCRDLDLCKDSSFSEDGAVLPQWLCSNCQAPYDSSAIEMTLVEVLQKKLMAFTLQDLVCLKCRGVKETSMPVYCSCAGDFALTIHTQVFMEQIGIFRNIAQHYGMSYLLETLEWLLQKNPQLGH
UniProt Q13427: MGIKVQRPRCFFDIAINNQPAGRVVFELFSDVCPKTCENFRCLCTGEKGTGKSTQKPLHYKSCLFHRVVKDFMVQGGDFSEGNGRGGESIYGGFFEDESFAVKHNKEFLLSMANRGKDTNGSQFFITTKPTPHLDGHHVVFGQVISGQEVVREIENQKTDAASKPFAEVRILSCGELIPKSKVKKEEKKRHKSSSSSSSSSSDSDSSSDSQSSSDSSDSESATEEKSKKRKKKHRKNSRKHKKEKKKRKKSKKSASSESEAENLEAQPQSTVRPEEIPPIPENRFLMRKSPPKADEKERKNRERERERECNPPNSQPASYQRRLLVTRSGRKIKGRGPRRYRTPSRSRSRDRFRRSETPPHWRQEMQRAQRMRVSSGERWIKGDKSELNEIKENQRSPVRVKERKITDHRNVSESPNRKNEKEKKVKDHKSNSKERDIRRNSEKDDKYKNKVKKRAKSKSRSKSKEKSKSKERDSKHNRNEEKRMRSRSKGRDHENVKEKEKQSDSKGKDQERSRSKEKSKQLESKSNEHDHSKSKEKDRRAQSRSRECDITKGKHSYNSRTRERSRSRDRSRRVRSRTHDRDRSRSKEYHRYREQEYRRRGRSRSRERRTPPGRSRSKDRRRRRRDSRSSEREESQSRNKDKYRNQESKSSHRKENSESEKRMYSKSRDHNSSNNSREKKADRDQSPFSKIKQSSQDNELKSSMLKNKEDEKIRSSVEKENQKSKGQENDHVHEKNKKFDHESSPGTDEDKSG
UniProt Q9GZS1, whole entry, looked up: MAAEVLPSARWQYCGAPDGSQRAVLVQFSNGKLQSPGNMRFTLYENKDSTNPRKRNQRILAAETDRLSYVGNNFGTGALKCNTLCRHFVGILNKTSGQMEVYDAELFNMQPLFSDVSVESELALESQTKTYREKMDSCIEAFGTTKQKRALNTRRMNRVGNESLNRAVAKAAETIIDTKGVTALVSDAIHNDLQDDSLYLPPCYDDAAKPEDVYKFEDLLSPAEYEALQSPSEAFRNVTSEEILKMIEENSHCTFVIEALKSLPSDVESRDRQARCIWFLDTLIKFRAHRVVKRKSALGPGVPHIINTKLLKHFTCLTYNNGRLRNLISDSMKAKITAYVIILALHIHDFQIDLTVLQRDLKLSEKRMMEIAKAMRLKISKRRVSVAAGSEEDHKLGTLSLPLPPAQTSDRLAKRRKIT

Key:
Assay in all cases: log2 fold change, soluble protein after heating vs DMSO (PISA); higher = thermal stabilisation; K562 cells, 10 uM, 30 min; active = over 0.2 and 3.5 SD of the protein, either way, in both replicates (recomputed)
[1] = compound: CC[C@@H]1C(=O)N(C)c2cnc(Nc3ccc(C(=O)NC4CCN(C)CC4)cc3OC)nc2N1C1CCCC1
Method in brief: (§1)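 K562 cells at 2×10^6 cells/mL were treated with 10 μM compound for 30 min. Aliquots were heated for 3 min across 48°C-58°C, pooled, and extracted in PBS with 0.5% NP-40 at 4°C; soluble protein was the supernatant after 21,000xg for 90 min. Soluble protein was quantified by TMTpro 16plex LC-MS/MS with channel sums equalised, and reported as log2 fold change in thermal stability against DMSO controls, with values from duplicates.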

epoxomicin = compound: CC[C@H](C)[C@@H](C(=O)N[C@@H]([C@@H](C)O)C(=O)N[C@@H](CC(C)C)C(=O)[C@]1(CO1)C)NC(=O)[C@H]([C@@H](C)CC)N(C)C(=O)C [epoxomicin]
Method in brief: as §1

[2] = compound: CCn1c(C(=O)N(C2CC2)C2CC2)cc2c3c(ncn3C)c(Nc3cc(C)n(C)n3)nc21
Method in brief: as §1

[3] = compound: CN(C)CC(=O)Nc1ccc2[nH]c(=O)c3ccccc3c2c1
Method in brief: as §1

[4] = compound: CN1C2=C(C3=C1C(=O)N(N=C3)CC4=CC(=CC=C4)N)SC(=C2)S(=O)C
Method in brief: as §1

volasertib = compound: CC[C@@H]1C(=O)N(C)c2cnc(Nc3ccc(C(=O)N[C@H]4CC[C@H](N5CCN(CC6CC6)CC5)CC4)cc3OC)nc2N1C(C)C [volasertib]
Method in brief: as §1

[5] = compound: CC[C@H](C)N1C=C(C2=C(C=C(C=C21)C3=CN=C(C=C3)N4CCNCC4)C(=O)NCC5=C(C=C(NC5=O)C)C)C
Method in brief: as §1

[6] = compound: CCn1cc(-c2ccnc3[nH]c(-c4cccc(CN(C)C)c4)cc23)c(-c2ccc(NC(=O)N(C)C)cc2)n1
Method in brief: as §1

rosiglitazone = compound: CN(CCOC1=CC=C(C=C1)C[C@H]2C(=O)NC(=O)S2)C3=CC=CC=N3 (racemic) [rosiglitazone]
Method in brief: as §1

[7] = compound: CN1CCC(CNc2ccc3ncc(-c4cccc(OC(F)(F)F)c4)n3n2)CC1
Method in brief: as §1

Measured: log2 fold change

PMS2 (UniProt P54278)
inactive: [1] 0.129 | epoxomicin 0.079 | [2] -0.034 | [3] 0.007 | [4] 0.085

POLD4 (UniProt Q9HCU8)
inactive: [1] 0.196 | volasertib 0.228 | [5] -0.005 | [6] -0.056 | rosiglitazone 0.105 | [4] 0.047 | [7] -0.376

PLEKHM2 (UniProt Q8IWE5)
inactive: [1] -0.127 | volasertib -0.177 | [5] 0.009 | epoxomicin 0.037 | [6] -0.175 | [3] 0.003 | [4] -0.04
active: [7] -0.357

POF1B isoform 1 (UniProt Q8WVV4)
inactive: [1] 1.32 | [5] 0.02 | [3] 0.279 | rosiglitazone -0.003 | [4] -0.127

PLIN3 isoform 2 (UniProt O60664)
inactive: [1] -0.044 | volasertib -0.073 | epoxomicin -0.218 | rosiglitazone -0.079

PMPCA (UniProt Q10713)
inactive: [1] 0.018 | volasertib 0.158 | [5] 0.021 | epoxomicin 0.029 | [6] -0.095 | [3] 0.013 | [4] -0.124 | [7] 0.138

PLEKHO2 (UniProt Q8TD55)
inactive: [1] -0.157 | volasertib -0.192 | [5] 0.104 | [2] -0.037 | [6] -0.055 | [3] -0.026 | rosiglitazone 0.06 | [7] -0.121

PLGRKT (UniProt Q9HBL7)
inactive: [1] -0.08 | [5] -0.02 | epoxomicin -0.142 | [2] 0.035 | [6] 0.075 | rosiglitazone 0.055 | [4] 0.008 | [7] 0.019

PPID (UniProt Q08752)
active: volasertib -0.366
inactive: [1] -0.076 | [5] 0.132 | epoxomicin 0.026 | [6] -0.058 | [3] 0.087 | [4] -0.015 | [7] -0.173

PLXNB1 (UniProt O43157)
inactive: epoxomicin 0.044

POT1 (UniProt Q9NUX5)
inactive: [5] -0.058 | epoxomicin 0.005 | [2] -0.091 | rosiglitazone 0.092

POLR2F (UniProt P61218)
inactive: volasertib 0.12 | [5] -0.216 | epoxomicin 0.201 | [2] -0.01 | [6] -0.051 | [3] 0.043 | rosiglitazone 0.008 | [4] 0.049 | [7] 0.001

PLSCR3 (UniProt Q9NRY6)
inactive: [5] -0.026 | [2] 0.002 | [6] 0.035 | [7] 0.246

PLG (UniProt P00747)
inactive: volasertib 0.054 | [5] 0.11 | [2] 0.061 | [6] 0.051 | [3] 0.117 | rosiglitazone -0.187 | [4] 0.21 | [7] -0.029

PPM1B isoform 2 (UniProt O75688)
inactive: rosiglitazone 0.04

PODXL (UniProt O00592)
inactive: [6] -0.238 | [7] -0.259

PNMT (UniProt P11086)
inactive: volasertib -0.191 | [2] 0.044 | [4] -0.066

POLQ (UniProt O75417)
inactive: [5] -0.063 | [6] -0.269 | rosiglitazone -0.008 | [7] -0.161

PORCN (UniProt Q9H237)
inactive: [2] 0.098 | [3] -0.018

PLK1 (UniProt P53350)
inactive: [5] 0.049 | epoxomicin 0.044 | [6] 0.033 | [3] -0.016 | [4] -0.029 | [7] -0.068
active: volasertib -2.06

POMGNT2 (UniProt Q8NAT1)
inactive: volasertib -0.042 | [2] -0.036 | [6] 0.046 | [3] 0.115 | rosiglitazone -0.16 | [4] -0.018 | [7] 0.175

POLR3D (UniProt P05423)
active: volasertib -0.394
inactive: [5] 0.107 | epoxomicin -0.066 | [6] 0.032 | [3] 0.018 | [4] 0.61 | [7] -0.035

POLR3H (UniProt Q9Y535)
inactive: volasertib -0.099 | [5] 0.068 | epoxomicin -0.054 | [2] -0.003 | [6] 0.016 | [3] 0.005 | rosiglitazone -0.002 | [4] -0.006 | [7] 0.019

PMVK (UniProt Q15126)
inactive: [5] 0.069 | epoxomicin 0.003 | [6] 0.142 | [3] 0.018 | [4] 0.036 | [7] 0.057

PLXNA3 (UniProt P51805)
inactive: epoxomicin 0.021 | [6] -0.104 | rosiglitazone 0.202 | [4] -0.052 | [7] -0.241

PLPPR3 isoform 3 (UniProt Q6T4P5)
inactive: epoxomicin 0.129 | [6] -0.276 | [7] 0.152

PLEKHJ1 (UniProt Q9NW61)
inactive: volasertib 0.114 | epoxomicin -0.21 | [4] 0.214

PMS2CL (UniProt Q68D20)
inactive: [5] -0.126 | epoxomicin 0.126

POM121C (UniProt A8CG34)
inactive: [5] 0.231 | [2] -0.143 | rosiglitazone -0.114

PM20D2 (UniProt Q8IYS1)
inactive: [2] -0.153 | [4] -0.079

PPFIA3 (UniProt O75145)
inactive: epoxomicin 0.197

POLR3GL (UniProt Q9BT43)
inactive: rosiglitazone -0.002

POMT1 (UniProt Q9Y6A1)
inactive: epoxomicin -0.028 | [2] -0.052 | [3] 0.028 | [4] 0.036

POLRMT (UniProt O00411)
inactive: epoxomicin -0.031 | [3] 0.11 | [4] 0.22

POLE2 (UniProt P56282)
inactive: [6] 0.025 | [7] 0.119

PLS3 (UniProt H7C4N2)
inactive: epoxomicin -0.099

POLG, A0A3B3IS91
inactive: [2] -0.083 | [4] 0.011

POLE (UniProt Q07864)
inactive: [6] 0.099 | rosiglitazone 0.13 | [7] -0.283

POLG (UniProt P54098)
inactive: volasertib -0.068 | [5] -0.009 | epoxomicin -0.064 | [2] -0.046 | [6] -0.051 | [3] -0.056 | rosiglitazone 0.084 | [4] -0.092 | [7] -0.11

POLR1B isoform 3 (UniProt Q9H9Y6)
inactive: [5] 0.173 | epoxomicin -0.134 | [2] 0.027 | [6] 0.022 | [3] -0.064 | [4] 0.245 | [7] 0.028

PPIG (UniProt Q13427)
inactive: volasertib -0.374 | rosiglitazone -0.356 | [4] -0.028

POLR1E isoform 1 (UniProt Q9GZS1)
inactive: volasertib 0.016 | [3] -0.043 | [4] 0.381

Three consecutive entries from above, for reference:
POLR1B isoform 3 (UniProt Q9H9Y6)
inactive: [5] 0.173 | epoxomicin -0.134 | [2] 0.027 | [6] 0.022 | [3] -0.064 | [4] 0.245 | [7] 0.028

PPIG (UniProt Q13427)
inactive: volasertib -0.374 | rosiglitazone -0.356 | [4] -0.028

POLR1E isoform 1 (UniProt Q9GZS1)
inactive: volasertib 0.016 | [3] -0.043 | [4] 0.381
